The values below are quoted from earlier work in patent publication US11219663B2, “Composition containing cyclic dipeptide and sweetening agent” (SUNTORY HOLDINGS LIMITED, priority 2015, dated 2022).

For the data set the following is noted: sweetness degree of sucrose specified as 1; cited from earlier work.
As for `CC1=CC(=O)NS(=O)(=O)O1` [Acesulfame K, acesulfame potassium], the Sweetness degree is given as 200. `C=C1C[C@@]23CC[C@H]4[C@@](C)(CCC[C@@]4(C)C(=O)O[C@@H]4O[C@H](CO)[C@@H](O)[C@H](O)[C@H]4O)[C@@H]2CC[C@]1(O[C@@H]1O[C@H](CO)[C@@H](O)[C@H](O[C@@H]2O[C@H](CO)[C@@H](O)[C@H](O)[C@H]2O)[C@H]1O[C@@H]1O[C@H](CO)[C@@H](O)[C@H](O)[C@H]1O)C3` [RebA, rebaudioside A]: the Sweetness degree is recorded as 450. As to `C=C1C[C@@]23CC[C@H]4[C@@](C)(CCC[C@@]4(C)C(=O)O[C@@H]4O[C@H](CO)[C@@H](O)[C@H](O)[C@H]4O[C@@H]4O[C@H](CO)[C@@H](O)[C@H](O)[C@H]4O)[C@@H]2CC[C@]1(O[C@@H]1O[C@H](CO)[C@@H](O)[C@H](O[C@@H]2O[C@H](CO)[C@@H](O)[C@H](O)[C@H]2O)[C@H]1O[C@@H]1O[C@H](CO)[C@@H](O)[C@H](O)[C@H]1O)C3` [RebD, rebaudioside D], the Sweetness degree is 285. For `C=C1C[C@@]23CC[C@H]4[C@@](C)(CCC[C@@]4(C)C(=O)O[C@@H]4O[C@H](CO)[C@@H](O)[C@H](O)[C@H]4O)[C@@H]2CC[C@]1(O[C@@H]1O[C@H](CO)[C@@H](O)[C@H](O)[C@H]1O[C@@H]1O[C@H](CO)[C@@H](O)[C@H](O)[C@H]1O)C3` [Stevioside, stevioside], the Sweetness degree is recorded as 300. With `OC[C@H]1O[C@H](O[C@]2(CCl)O[C@H](CCl)[C@@H](O)[C@@H]2O)[C@H](O)[C@@H](O)[C@H]1Cl` [Sucralose, sucralose], the Sweetness degree is reported as 600.

`O=C(CO)[C@@H](O)[C@H](O)[C@H](O)CO` [fructose]: the Sweetness degree was 1.73. As for `OC[C@@H](O)[C@@H](O)[C@H](O)[C@H](O)CO` [mannitol], the Sweetness degree is 0.60. Turning to `OC[C@@H](O)[C@H](O)[C@@H](O)CO` [xylitol], the Sweetness degree was 0.60. In the case of rebaudioside B [RebB], the Sweetness degree was 300.

With rebaudioside C [RebC], the Sweetness degree is recorded as 30.
